No constants are given. Whether binding was seen depends on the method and setting.
Key:
[1] = target: Fsa2 (Fusarium sp. FN080326); test: SEC
[2] = target: Phm7 (Pyrenochaetopsis sp. RK10-F058); test: SEC

By UniProt entry, the sequences of proteins in these tests, tags left out.
UniProt A0A0E4AYE7, whole entry: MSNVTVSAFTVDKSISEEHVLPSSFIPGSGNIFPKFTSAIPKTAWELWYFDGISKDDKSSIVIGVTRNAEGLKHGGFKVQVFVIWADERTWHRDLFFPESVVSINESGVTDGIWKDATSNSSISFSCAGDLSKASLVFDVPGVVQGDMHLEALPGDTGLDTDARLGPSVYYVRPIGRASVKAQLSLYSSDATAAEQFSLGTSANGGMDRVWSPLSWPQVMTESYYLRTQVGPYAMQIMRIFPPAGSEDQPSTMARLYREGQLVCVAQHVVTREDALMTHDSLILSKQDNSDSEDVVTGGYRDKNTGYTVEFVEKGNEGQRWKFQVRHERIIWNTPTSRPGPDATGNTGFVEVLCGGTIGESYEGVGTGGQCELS

| binding [2] | Molecule | binding [1] |
| --- | --- | --- |
|  | Fsa2 (from UniProt A0A0E4AYE7 1-374) (enzyme) | no binding |
| no binding | Phm7 (enzyme, UniProt A0A2Z5XAU0 1-386) MSEPTSSSSLDITSNCIIETPLQPSDFLPKSANLFPKFPERISVDSWELWEFDTFDTNGSVAFGCSLYRDARGVEQGGFHAEVNALWPDGTHWGETLYFAVSEVVENSDGTTGGKWLSKDGGSITFHIASDYTAAALDFNVPGKVSGTMELRNHANVSPTSNLPASDAEAQLCPGVYYTFPMGPVATSVTATFSSVGANGESRELFISSGYGGMVRGWSARPWPTFMNDAYYVVAQVGPYMLQILRTLGSVFVQHKPFAVARLYLDGSLVSAANTVVGDELTAHADDVKGDAVRLTKVQPDEKSQGLSGKFRDGNVGYVLEFAKKDSEHGWTFQISHKRAVWSEPTSAPGPDGTGKSGWIEAISGGAKGENYEGHGFGGQLQIPVP |  |
